In patent US5328898A, “Factor XIIIA fibrin binding fragments” (Duke University, priority 1990, dated 1994):
Not every detail of the peptide structures is certain; ends, links or a residue may be inferred. Ends that are not written are not given here.

System: Factor XIIIa
Assay: Factor XIIIa-catalyzed crosslinking of fibrin II (SDS-PAGE)
Assay type: biochemical
Settings: human fibrinogen 0.27 mg/mL
Method: This example illustrates the effect of DDAVY. . . peptide and NKLIV. . . peptide on fibrin crosslinking by Factor XIIIa. Purified human fibrinogen (0.27 mg/mL) was mixed with increasing concentrations (56 micromolar to 280 micromolar) of the DDAVY. . . peptide and incubated for 15 minutes at 37° C. Then, calcium chloride was added in 0.1M Tris, pH7.4 containing 0.15M NaCl (Tris-buffered saline, TBS) to make the final calcium concentration equal 10 mM. The mixture was then clotted by the addition of 10 U/mL thrombin. Thrombin also served to activate the catalytic amounts of Factor XIII present in the fibrinogen preparation. The mixture was incubated for an additional 15 minutes at 37° C. and then solubilized in SDS-PAGE buffer containing 5% sodium dodecylsulfate (SDS), 4M urea, 10mM Tris, pH7.4, 1.0 mM ethylenediaminetetraacetic acid (EDTA), 1% 2-mercaptoethanol, and 0.001% bromophenol blue. The mixture was boiled for 5 minutes, cooled, and then separated by electrophoresis on a 4-15% linear gradient polyacrylamide gel (SDS-polyacrylamide gel electrophoresis, SDS-PAGE). After electrophoresis, the gel was stained using Coomassie Brilliant Blue and destained. Control incubations were conducted simultaneously that contained no peptide.
The reaction was also conducted as described for the DDAVY. . . peptide, except that NKLIV. . . peptide was substituted for the DDAVY. . . peptide. […]

NKLIVRRGQSFYVQIDFSRPYDPRRD-NH2 [NKLIV. . . peptide]
inhibition of fibrin crosslinking (179 micromolar peptide): ~100%
concentration at which inhibition of fibrin crosslinking could be detected (10 U/mL thrombin, 10 mM calcium): 90 µM
